Results are given in words; binding and its absence hold for the method and conditions named. In cells and extracts the contact can be indirect. Some binding calls cover weakened binding; strength is not graded here.

By UniProt entry, the sequences of proteins in these tests, tags left out.
UniProt Q921F2: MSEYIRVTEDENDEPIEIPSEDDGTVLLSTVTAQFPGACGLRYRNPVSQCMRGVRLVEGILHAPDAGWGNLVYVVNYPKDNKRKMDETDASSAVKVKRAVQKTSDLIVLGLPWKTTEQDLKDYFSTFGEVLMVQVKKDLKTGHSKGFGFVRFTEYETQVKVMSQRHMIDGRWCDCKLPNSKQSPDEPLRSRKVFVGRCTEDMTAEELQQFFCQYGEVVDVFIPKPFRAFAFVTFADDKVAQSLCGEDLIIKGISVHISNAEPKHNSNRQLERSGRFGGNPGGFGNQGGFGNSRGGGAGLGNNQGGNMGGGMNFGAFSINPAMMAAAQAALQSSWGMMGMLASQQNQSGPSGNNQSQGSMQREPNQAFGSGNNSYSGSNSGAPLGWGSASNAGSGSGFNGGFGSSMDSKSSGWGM

This assay addresses TDP43, endogenous in mouse fully grown oocytes (mouse (endogenous in fully grown oocytes)) (UniProt Q921F2). The assay is described as follows: co-IP; endogenous IP from fully grown (GV) mouse oocytes; protein A beads coupled with TDP-43 antibody or rabbit IgG (Fig. 8B).

B1: PABPN1, endogenous in mouse fully grown oocytes (protein, UniProt Q8CCS6 1-302)
chain: MAAAAAAAAAAGAAGGRGSGPGRRRHLVPGAGGEAGEGDPGGAGDYGNGLESEELEPGELLPEPEPEEEPPRPRAPPGAPGPGPGSGAPGSQEEEEEPGLVEADPGDGAIEDPELEAIKARVREMEEEAEKLKELQNEVEKQMNMSPPPGNAGPVIMSLEEKMEADARSIYVGNVDYGATAEELEAHFHGCGSVNRVTILCDKFSGHPKGFAYIEFSDKESVRTSLALDESLFRGRQIKVIPKRTNRPGISTTDRGFPRSRYRARTTNYNSSRSRFYSGFNSRPRGRIYRGRARATSWYSPY
As to B1, the binding entry was “binds”.
